We go through four sequences from paper PMC11109280.

The test system of series [1] is PTBP1 (endogenous) (Locusta migratoria). Briefly: RNA pull-down with immunoblot and MS. As to conditions: terminal oocyte lysate; protein pull-down: 100 mM KCl, 20 mM Tris-HCl pH 7.6, 0.1% Triton X-100, 0.1% Tween-20, 4 C 2 h; protein in an extract; label: 3' ….
The test system of series [2] is PTBP1 (recombinant) (Locusta migratoria). The series is described as follows: protein pull-down with qPCR. The following applies: 100 mM KCl, 20 mM Tris-HCl pH 7.6, versus empty-vector lysate, protein pull-down: 100 mM KCl, 20 mM Tris-HCl pH 7.6, 0.1% Triton X-100, 0.1% Tween-20, 4 C 2 h.
The test system of series [3] is FOXN1 (Locusta migratoria). The series is described as follows: EMSA (nuclear extract). The following applies: labeled Mut probe, no WT probe; EMSA: 20 ug nuclear extract, 200 fmol probe, 2.5% glycerol, 5 mM MgCl2, 1 M KCl, 50 ng poly(dI-dC), 0.05% NP-40, room temp 20 min; protein in an extract; label: 5' biotin (direct EMSA), unlabeled (competitor). In general terms: A gel shift assay detects complexes by their altered migration in electrophoresis.

In series [4] the test system is FOXN1 (Locusta migratoria). Briefly: competition with a labelled probe. As to conditions: 400 pmol unlabeled Mut vs 200 fmol labeled WT probe; EMSA: 20 ug nuclear extract, 200 fmol probe, 2.5% glycerol, 5 mM MgCl2, 1 M KCl, 50 ng poly(dI-dC), 0.05% NP-40, room temp 20 min; protein in an extract; label: 5' biotin (direct EMSA), unlabeled (competitor).
Series [5] concerns PTBP1 (endogenous) (Locusta migratoria). The series is described as follows: RNA pull-down with MS. The following applies: terminal oocyte lysate, negative control probe; protein pull-down: 100 mM KCl, 20 mM Tris-HCl pH 7.6, 0.1% Triton X-100, 0.1% Tween-20, 4 C 2 h; protein in an extract; label: 3' biotin.

For at least one entry, the source does not settle the construct or the ends of the probe. For some assays here: Where cells or extracts were used, other partners may take part. For some assays here: Negatives hold for the conditions tested. For some assays here: At least one verdict was read from the data and is not stated in words by the source.

Consider “AGCAGCGAGGUAUAGAGUUCCUACGUGUGUUGUUAUAGUAGGAACUUCAUACCGUGCUCUUG [pre-miR-276 (biotin, 62 nt)]”, for which the binding result in series [1] is reported as “binds”.
Regarding “AGCAGCGAGGUAUAGAGUUCCUACGUGUGUUGUUAUAGUAGGAACUUCAUACCGUGCUCUUG [pre-miR-276 (chemically synthesized)]”, the binding result in series [2] is listed as “binds”.
Regarding “GCTTGATTCCAGAATCACTAACAAC (double strand) [Mut probe]”, the binding result in series [3] and in series [4] was “no binding” in each case.
In the case of “UCCGCUCAUUCUGCCGGUUGUUAUGCUAUUAUCAGAUUAAGCAUCACAACCUCCUAGAAAGAGUAGAUC [NC (pre-miR-67, 69 nt)]”, the binding result in series [5] is given as “no binding”.
